# Results are given in words; binding and its absence hold for the method and conditions named. Binding seen in cells or lysates may run through a third protein. For some assays here: A result given as binding can be weak or reduced; the word gives no strength.
# Assays:
# [1] = target: T1, AtERdj3A–4M8H (Arabidopsis thaliana) (UniProt Q9SR96); test: co-IP; in vivo: 4M8H-tagged AtERdj constructs co-expressed with AtBiP1–GFP, CMV MP–GST or GFP in N. benthamiana leaves; total protein (100 µg) with c-Myc affinity beads 4 h at 4 °C; blots with anti-GFP or anti-GST
# T1 sequence: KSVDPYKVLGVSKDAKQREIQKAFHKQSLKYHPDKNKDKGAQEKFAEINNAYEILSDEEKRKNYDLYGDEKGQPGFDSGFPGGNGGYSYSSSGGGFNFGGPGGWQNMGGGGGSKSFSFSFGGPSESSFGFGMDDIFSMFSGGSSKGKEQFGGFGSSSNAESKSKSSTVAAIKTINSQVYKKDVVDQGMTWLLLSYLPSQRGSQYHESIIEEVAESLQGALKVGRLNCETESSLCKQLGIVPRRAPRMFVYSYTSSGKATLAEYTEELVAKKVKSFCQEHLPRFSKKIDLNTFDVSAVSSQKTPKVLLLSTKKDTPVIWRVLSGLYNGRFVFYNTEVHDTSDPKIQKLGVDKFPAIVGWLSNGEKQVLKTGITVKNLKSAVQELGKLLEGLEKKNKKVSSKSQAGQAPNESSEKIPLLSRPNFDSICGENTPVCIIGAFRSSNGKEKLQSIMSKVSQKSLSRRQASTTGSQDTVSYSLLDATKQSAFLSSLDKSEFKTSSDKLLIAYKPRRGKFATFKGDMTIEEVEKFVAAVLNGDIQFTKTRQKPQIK
# [2] = target: T2, AtERdj2A–4M8H (Arabidopsis thaliana) (UniProt Q0WT48); test: as above
# T2 sequence: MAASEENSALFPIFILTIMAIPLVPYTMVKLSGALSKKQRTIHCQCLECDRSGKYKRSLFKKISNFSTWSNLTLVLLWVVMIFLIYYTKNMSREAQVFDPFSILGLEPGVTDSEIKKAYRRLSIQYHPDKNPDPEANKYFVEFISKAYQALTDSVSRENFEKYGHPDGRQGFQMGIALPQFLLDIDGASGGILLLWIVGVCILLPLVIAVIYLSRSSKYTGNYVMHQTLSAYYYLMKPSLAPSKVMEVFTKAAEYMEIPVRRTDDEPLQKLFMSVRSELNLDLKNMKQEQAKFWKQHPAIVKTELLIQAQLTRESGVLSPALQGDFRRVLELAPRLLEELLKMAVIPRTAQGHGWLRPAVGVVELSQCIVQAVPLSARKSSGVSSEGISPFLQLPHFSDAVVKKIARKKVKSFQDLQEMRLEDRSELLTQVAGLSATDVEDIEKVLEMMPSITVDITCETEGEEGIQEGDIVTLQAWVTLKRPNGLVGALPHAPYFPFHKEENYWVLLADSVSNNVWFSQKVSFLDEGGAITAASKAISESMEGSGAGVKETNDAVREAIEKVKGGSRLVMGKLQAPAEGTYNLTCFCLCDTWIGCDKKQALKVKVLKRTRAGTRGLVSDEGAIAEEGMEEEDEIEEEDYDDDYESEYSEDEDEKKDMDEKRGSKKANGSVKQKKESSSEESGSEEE
substance,measurement,setting,value
CMV MP–GST (GST-fused cucumber mosaic virus movement protein),binding,[1],no binding
same,binding,[2],binds

# — PMC10838158
